Reference: paper PMC9986248
Results are given in words; binding and its absence hold for the method and conditions named. In cells and extracts the contact can be indirect. Some binding calls cover weakened binding; strength is not graded here. Each block holds one substance with its values, some of them ahead of it.

Protein sequences, listed by entry. Tags and fused reporters are not part of them. Lines headed by an entry give the natural chain unless they say otherwise; changes in a name come on top. Residues count along the entry.
UniProt Q96P20: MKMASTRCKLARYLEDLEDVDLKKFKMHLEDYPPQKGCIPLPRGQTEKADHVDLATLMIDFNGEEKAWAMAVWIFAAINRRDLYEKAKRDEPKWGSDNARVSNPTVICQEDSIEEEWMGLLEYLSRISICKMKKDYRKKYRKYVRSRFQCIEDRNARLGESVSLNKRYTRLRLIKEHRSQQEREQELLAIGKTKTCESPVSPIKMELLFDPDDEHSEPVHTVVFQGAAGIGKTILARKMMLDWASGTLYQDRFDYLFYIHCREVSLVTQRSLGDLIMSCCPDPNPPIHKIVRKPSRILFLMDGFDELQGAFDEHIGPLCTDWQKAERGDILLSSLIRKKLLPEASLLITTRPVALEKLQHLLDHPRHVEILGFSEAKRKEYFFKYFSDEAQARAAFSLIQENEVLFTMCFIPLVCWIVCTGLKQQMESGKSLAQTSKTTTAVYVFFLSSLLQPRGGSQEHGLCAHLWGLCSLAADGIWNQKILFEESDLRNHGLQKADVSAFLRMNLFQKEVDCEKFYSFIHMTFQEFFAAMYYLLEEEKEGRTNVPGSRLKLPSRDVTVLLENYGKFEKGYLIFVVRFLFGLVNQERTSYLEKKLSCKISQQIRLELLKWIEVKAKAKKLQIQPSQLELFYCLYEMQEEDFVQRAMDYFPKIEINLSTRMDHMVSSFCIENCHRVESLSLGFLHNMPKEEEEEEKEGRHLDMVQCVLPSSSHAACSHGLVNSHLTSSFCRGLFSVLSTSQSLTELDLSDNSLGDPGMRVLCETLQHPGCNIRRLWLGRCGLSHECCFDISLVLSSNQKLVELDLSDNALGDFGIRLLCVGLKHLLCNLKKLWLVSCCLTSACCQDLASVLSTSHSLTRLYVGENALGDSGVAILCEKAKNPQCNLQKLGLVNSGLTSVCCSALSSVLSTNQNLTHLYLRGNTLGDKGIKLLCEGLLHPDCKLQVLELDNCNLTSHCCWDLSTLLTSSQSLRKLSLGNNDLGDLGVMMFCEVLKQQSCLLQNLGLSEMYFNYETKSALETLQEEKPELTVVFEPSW
NLRP3 PYRIN (PYD) domain: residues 1-93 of Q96P20
NLRP3 NACHT domain: residues 220-536 of Q96P20
UniProt O00141: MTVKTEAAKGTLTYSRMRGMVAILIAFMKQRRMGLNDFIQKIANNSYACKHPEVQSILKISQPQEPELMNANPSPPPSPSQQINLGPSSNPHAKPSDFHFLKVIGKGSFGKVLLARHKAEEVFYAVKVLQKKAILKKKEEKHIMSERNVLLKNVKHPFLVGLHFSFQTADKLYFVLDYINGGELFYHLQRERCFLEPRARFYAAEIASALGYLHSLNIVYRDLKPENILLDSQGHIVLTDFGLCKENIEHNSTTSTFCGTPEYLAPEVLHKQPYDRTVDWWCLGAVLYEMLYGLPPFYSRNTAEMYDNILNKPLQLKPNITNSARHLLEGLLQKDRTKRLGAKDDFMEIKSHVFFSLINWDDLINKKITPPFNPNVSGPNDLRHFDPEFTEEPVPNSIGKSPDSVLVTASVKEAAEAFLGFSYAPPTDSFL

Tests used:
[1] = target: NLRP3 NACHT domain (UniProt Q96P20); experiment: co-IP; domain mapping: HEK-293T cells transfected with plasmids for full-length SGK1 and one of the NLRP3 domains, 48 h, immunoblotting
[2] = target: NLRP3 PYRIN (PYD) domain (UniProt Q96P20); experiment: as above
[3] = target: GFP-NLRP3 (UniProt Q96P20); experiment: co-IP; tagged proteins (GFP-NLRP3, FLAG-SGK1, MYC-ASC) transfected in HEK-293T cells stimulated with LPS (200 ng/mL, 3 h) and ATP (5 mM, 30 min); total lysates; NLRP3 with ASC in the absence and presence of FLAG-SGK1
[4] = target: serum/glucocorticoid-inducible kinase 1 (endogenous, THP-1) (human (endogenous in THP-1)) (UniProt O00141); experiment: co-IP; endogenous proteins in total lysates of THP-1 cells (saline, LPS 200 ng/mL 3 h, or LPS + ATP 5 mM 30 min; control or SGK1 siRNA for NLRP3 with ASC); 500 ug lysate with primary antibody 14 h at 4 °C, protein G Dynabeads; lysis buffer 50 mM Tris-HCl pH 7.4, 150 mM NaCl, 1 mM EDTA, 0.5% NP-40, 0.25% sodium deoxycholate
[5] = target: GST-fused NLRP3 (UniProt Q96P20); experiment: pull-down; GST-fused NLRP3 on glutathione Sepharose 4B beads incubated with in vitro translated SGK1 (rabbit reticulocyte lysate), washed with binding buffer, SDS-PAGE; only the target purified
[6] = target: NLR family pyrin domain containing 3 (endogenous, THP-1) (human (endogenous in THP-1)) (UniProt Q96P20); experiment: co-IP; endogenous proteins in total lysates of THP-1 cells (saline, LPS 200 ng/mL 3 h, or LPS + ATP 5 mM 30 min; control or SGK1 siRNA for NLRP3 with ASC); 500 ug lysate with primary antibody 14 h at 4 °C, protein G Dynabeads; lysis buffer 50 mM Tris-HCl pH 7.4, 150 mM NaCl, 1 mM EDTA, 0.5% NP-40, 0.25% sodium deoxycholate

- binding [1]: binds weakly
- binding [2]: binds
- binding [3]: binds
Substance: FLAG-SGK1 (from UniProt O00141 1-431)

- binding [4]: binds
Substance: NLR family pyrin domain containing 3 (endogenous, THP-1) (from UniProt Q96P20 1-1036)

- binding [5]: binds
Substance: in vitro translated SGK1 (from UniProt O00141 1-431)

- binding [6]: binds
Substance: serum/glucocorticoid-inducible kinase 1 (endogenous, THP-1) (from UniProt O00141 1-431)
